# According to the supplement of paper PMC8728848:
# The other results are listed elsewhere or left out.
# How the values were obtained:
# Experiment in all cases: glycan array binding signal (z-score within array); higher = stronger binding
# Conditions in all cases: glycan notation: IUPAC condensed, linker removed
# Gal6S(b1-4)Glc = biological target: Gal6S(b1-4)Glc
# Outline: (§1)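 Columns mapping to the same glycan were averaged after glycan names were converted to IUPAC-condensed notation. The data come from 3228 arrays in the Consortium for Functional Glycomics database, limited to those with an available protein sequence. Binding is reported as a within-array Z-score averaged across arrays of one protein sequence and across linkers.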
# Gal6S(b1-4)Glc6S = biological target: Gal6S(b1-4)Glc6S
# Outline: as §1
# Gal6S(b1-4)GlcNAc = biological target: Gal6S(b1-4)GlcNAc
# Outline: as §1
# Gal6S(b1-4)GlcNAc6S = biological target: Gal6S(b1-4)GlcNAc6S
# Outline: as §1
# GalNAc(a1-3)Gal = biological target: GalNAc(a1-3)Gal
# Outline: as §1
# GalNAc(a1-3)GalNAc = biological target: GalNAc(a1-3)GalNAc
# Outline: as §1
# [1] = biological target: GalNAc(a1-3)GalNAc(a1-3)Gal(a1-4)Gal(b1-4)GlcNAc
# Outline: as §1
# [2] = biological target: GalNAc(a1-3)GalNAc(b1-3)Gal(a1-4)Gal(b1-4)Glc
# Outline: as §1
# [3] = biological target: GalNAc(a1-3)GalNAc(b1-3)Gal(a1-4)Gal(b1-4)GlcNAc
# Outline: as §1
# GalNAc(b1-3)Gal = biological target: GalNAc(b1-3)Gal
# Outline: as §1
# [4] = biological target: GalNAc(b1-3)Gal(a1-4)Gal(b1-4)GlcNAc
# Outline: as §1
# [5] = biological target: GalNAc(b1-3)Gal(a1-4)Gal(b1-4)GlcNAc(b1-3)Gal(b1-4)Glc
# Outline: as §1
# [6] = biological target: GalNAc(b1-3)Gal(a1-6)Gal(b1-4)Glc
# Outline: as §1
# GalNAc(b1-3)GalNAc = biological target: GalNAc(b1-3)GalNAc
# Outline: as §1
# GalNAc(b1-3)GlcNAc = biological target: GalNAc(b1-3)GlcNAc
# Outline: as §1
# GalNAc(b1-4)Gal(b1-4)Glc = biological target: GalNAc(b1-4)Gal(b1-4)Glc
# Outline: as §1
# GalNAc(b1-4)GlcNAc = biological target: GalNAc(b1-4)GlcNAc
# Outline: as §1
# [7] = biological target: GalNAc(b1-4)GlcNAc(b1-2)Man
# Outline: as §1
# [8] = biological target: GalNAc(b1-4)GlcNAc(b1-2)Man(a1-3)[GalNAc(b1-4)GlcNAc(b1-2)Man(a1-6)]Man(b1-4)GlcNAc(b1-4)GlcNAc
# Outline: as §1
# [9] = biological target: GalNAc(b1-4)GlcNAc(b1-3)GalNAc(b1-4)GlcNAc
# Outline: as §1
# GalNAc(b1-4)GlcNAc6S = biological target: GalNAc(b1-4)GlcNAc6S
# Outline: as §1
# GalNAc(b1-6)GalNAc = biological target: GalNAc(b1-6)GalNAc
# Outline: as §1
# GalNAc3S(b1-4)GlcNAc = biological target: GalNAc3S(b1-4)GlcNAc
# Outline: as §1
# GalNAc3S(b1-4)GlcNAc3S = biological target: GalNAc3S(b1-4)GlcNAc3S
# Outline: as §1
# [10] = biological target: GalNAc3S(b1-4)[Fuc(a1-3)]GlcNAc
# Outline: as §1
# GalNAc4S6S(b1-4)GlcNAc = biological target: GalNAc4S6S(b1-4)GlcNAc
# Outline: as §1
# GalNAc6S(b1-4)GlcNAc = biological target: GalNAc6S(b1-4)GlcNAc
# Outline: as §1
# Glc(a1-4)Glc = biological target: Glc(a1-4)Glc
# Outline: as §1
# [11] = biological target: Glc(a1-4)Glc(a1-4)Glc(a1-4)Glc
# Outline: as §1
# Glc(a1-6)Glc(a1-6)Glc = biological target: Glc(a1-6)Glc(a1-6)Glc
# Outline: as §1
# [12] = biological target: Glc(a1-6)Glc(a1-6)Glc(a1-6)Glc
# Outline: as §1
# Glc(b1-4)Glc = biological target: Glc(b1-4)Glc
# Outline: as §1
# Glc(b1-6)Glc = biological target: Glc(b1-6)Glc
# Outline: as §1
# GlcA(b1-3)Gal = biological target: GlcA(b1-3)Gal
# Outline: as §1
# GlcA(b1-3)GlcNAc = biological target: GlcA(b1-3)GlcNAc
# Outline: as §1
# GlcA(b1-6)Gal = biological target: GlcA(b1-6)Gal
# Outline: as §1
# [13] = biological target: GlcA3S(b1-3)Gal(b1-4)GlcNAc(b1-2)Man
# Outline: as §1
# [14] = biological target: GlcA3S(b1-3)Gal(b1-4)GlcNAc(b1-3)Gal(b1-4)Glc
# Outline: as §1
# [15] = biological target: GlcNAc(a1-3)Gal(b1-4)GlcNAc
# Outline: as §1
# [16] = biological target: GlcNAc(a1-4)Gal(b1-3)GlcNAc
# Outline: as §1
# [17] = biological target: GlcNAc(a1-4)Gal(b1-4)GalNAc
# Outline: as §1
# [18] = biological target: GlcNAc(a1-4)Gal(b1-4)GlcNAc
# Outline: as §1
# [19] = biological target: GlcNAc(a1-4)Gal(b1-4)GlcNAc(b1-3)Gal(b1-4)Glc
# Outline: as §1
# [20] = biological target: GlcNAc(a1-4)Gal(b1-4)GlcNAc(b1-3)Gal(b1-4)GlcNAc
# Outline: as §1
# [21] = biological target: GlcNAc(a1-4)Gal(b1-4)GlcNAc(b1-3)Gal(b1-4)GlcNAc(b1-3)Gal(b1-4)GlcNAc
# Outline: as §1
binder,measurement,setting,value
"Gal 10 (Homo sapiens), Q05315 (protein) MSLLPVPYTEAASLSTGSTVTIKGRPLVCFLNEPYLQVDFHTEMKEESDIVFHFQVCFGRRVVMNSREYGAWKQQVESKNMPFQDGQEFELSISVLPDKYQVMVNGQSSYTFDHRIKPEAVKMVQVWRDISLTKFNVSYLKR",glycan array binding signal (z-score),Gal6S(b1-4)Glc,-0.181
same,glycan array binding signal (z-score),Gal6S(b1-4)Glc6S,-0.014
same,glycan array binding signal (z-score),Gal6S(b1-4)GlcNAc,-0.568
same,glycan array binding signal (z-score),Gal6S(b1-4)GlcNAc6S,0.208
same,glycan array binding signal (z-score),GalNAc(a1-3)Gal,-0.104
same,glycan array binding signal (z-score),GalNAc(a1-3)GalNAc,-0.834
same,glycan array binding signal (z-score),[1],-0.788
same,glycan array binding signal (z-score),[2],0.071
same,glycan array binding signal (z-score),[3],0.054
same,glycan array binding signal (z-score),GalNAc(b1-3)Gal,-0.012
same,glycan array binding signal (z-score),[4],-0.318
same,glycan array binding signal (z-score),[5],-1.07
same,glycan array binding signal (z-score),[6],-0.345
same,glycan array binding signal (z-score),GalNAc(b1-3)GalNAc,-0.693
same,glycan array binding signal (z-score),GalNAc(b1-3)GlcNAc,-0.501
same,glycan array binding signal (z-score),GalNAc(b1-4)Gal(b1-4)Glc,2.27
same,glycan array binding signal (z-score),GalNAc(b1-4)GlcNAc,-0.046
same,glycan array binding signal (z-score),[7],-0.146
same,glycan array binding signal (z-score),[8],0.225
same,glycan array binding signal (z-score),[9],-0.43
same,glycan array binding signal (z-score),GalNAc(b1-4)GlcNAc6S,0.088
same,glycan array binding signal (z-score),GalNAc(b1-6)GalNAc,1.06
same,glycan array binding signal (z-score),GalNAc3S(b1-4)GlcNAc,-0.035
same,glycan array binding signal (z-score),GalNAc3S(b1-4)GlcNAc3S,-0.463
same,glycan array binding signal (z-score),[10],-0.411
same,glycan array binding signal (z-score),GalNAc4S6S(b1-4)GlcNAc,0.312
same,glycan array binding signal (z-score),GalNAc6S(b1-4)GlcNAc,-0.433
same,glycan array binding signal (z-score),Glc(a1-4)Glc,-0.826
same,glycan array binding signal (z-score),[11],-0.616
same,glycan array binding signal (z-score),Glc(a1-6)Glc(a1-6)Glc,-0.465
same,glycan array binding signal (z-score),[12],0.817
same,glycan array binding signal (z-score),Glc(b1-4)Glc,-0.17
same,glycan array binding signal (z-score),Glc(b1-6)Glc,0.153
same,glycan array binding signal (z-score),GlcA(b1-3)Gal,0.207
same,glycan array binding signal (z-score),GlcA(b1-3)GlcNAc,0.335
same,glycan array binding signal (z-score),GlcA(b1-6)Gal,-0.265
same,glycan array binding signal (z-score),[13],-0.731
same,glycan array binding signal (z-score),[14],-0.278
same,glycan array binding signal (z-score),[15],0.489
same,glycan array binding signal (z-score),[16],0.122
same,glycan array binding signal (z-score),[17],0.835
same,glycan array binding signal (z-score),[18],-0.744
same,glycan array binding signal (z-score),[19],-0.161
same,glycan array binding signal (z-score),[20],0.196
same,glycan array binding signal (z-score),[21],0.459

# For convenience, part of the list above.
binder,measurement,setting,value
"Gal 10 (Homo sapiens), Q05315 (protein) MSLLPVPYTEAASLSTGSTVTIKGRPLVCFLNEPYLQVDFHTEMKEESDIVFHFQVCFGRRVVMNSREYGAWKQQVESKNMPFQDGQEFELSISVLPDKYQVMVNGQSSYTFDHRIKPEAVKMVQVWRDISLTKFNVSYLKR",glycan array binding signal (z-score),[7],-0.146
same,glycan array binding signal (z-score),[8],0.225
same,glycan array binding signal (z-score),[9],-0.43
